These results are taken from PMC11995443.

Chains of the proteins cited; added tags and fusions are not shown. Lines headed by an entry give the natural chain unless they say otherwise; changes in a name come on top.
UniProt P43297: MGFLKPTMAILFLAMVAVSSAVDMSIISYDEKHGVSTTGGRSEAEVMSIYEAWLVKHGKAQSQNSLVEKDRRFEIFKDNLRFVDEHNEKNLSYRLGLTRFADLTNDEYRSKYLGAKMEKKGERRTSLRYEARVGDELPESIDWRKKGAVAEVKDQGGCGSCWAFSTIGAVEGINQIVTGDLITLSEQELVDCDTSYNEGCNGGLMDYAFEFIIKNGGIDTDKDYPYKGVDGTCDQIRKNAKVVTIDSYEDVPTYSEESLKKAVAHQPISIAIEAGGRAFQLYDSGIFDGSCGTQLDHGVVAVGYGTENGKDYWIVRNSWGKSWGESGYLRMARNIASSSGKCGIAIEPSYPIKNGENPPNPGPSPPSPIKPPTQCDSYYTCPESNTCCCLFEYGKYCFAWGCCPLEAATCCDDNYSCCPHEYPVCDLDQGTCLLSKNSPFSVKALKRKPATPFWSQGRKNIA

No constants are given. Whether binding was seen depends on the method and setting. For part of these data: A result given as binding can be weak or reduced; the word gives no strength. For part of these data: Binding seen in cells or lysates may run through a third protein. For part of these data: Tags and fused reporters may be left off the sequences shown.

The target in assay [1] is T1, ovarian tumor domain (OTU)-containing deubiquitilating enzyme 2 (OTU2), bait in pGBKT7 (A. thaliana) (UniProt Q9LPT6).
T1 sequence: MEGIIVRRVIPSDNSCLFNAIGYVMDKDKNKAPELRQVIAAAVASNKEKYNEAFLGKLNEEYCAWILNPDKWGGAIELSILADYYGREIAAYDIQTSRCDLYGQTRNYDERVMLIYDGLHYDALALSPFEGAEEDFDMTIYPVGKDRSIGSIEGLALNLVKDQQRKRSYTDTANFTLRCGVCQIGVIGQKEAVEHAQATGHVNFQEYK
Nature of the assay: two-hybrid; OTU2 (or its truncated derivatives) in pGBKT7 as bait, candidates in pGADT7 as prey; Y2H golden yeast cells; SD-Trp-Leu-His-Ade with X-alpha-Gal and aureobasidin A.

Assay [2] addresses T2, OTU2c (124-208 aa) (A. thaliana) (UniProt Q9LPT6).
T2 sequence: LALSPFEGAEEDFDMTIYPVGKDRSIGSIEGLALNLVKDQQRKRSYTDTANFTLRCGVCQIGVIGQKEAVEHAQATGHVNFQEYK
The description is as above.

For assay [3], the target named is T3, OTU2n (11-123 aa) (A. thaliana) (UniProt Q9LPT6).
T3 sequence: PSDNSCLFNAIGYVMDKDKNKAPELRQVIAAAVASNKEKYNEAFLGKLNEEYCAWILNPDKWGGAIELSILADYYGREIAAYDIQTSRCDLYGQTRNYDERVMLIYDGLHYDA
Described as above.

The target of assay [4] is RD21A in the first multiple cloning site of pBridge (A. thaliana) (UniProt P43297). Nature of the assay: two-hybrid; yeast three-hybrid: RD21A in the first site of pBridge, OTU2 in the second site or not, PbE3-2 without signal peptide in pGADT7; SD-Trp-Leu-His-Met with X-alpha-Gal and aureobasidin A.
For the next assay, the target named is RD21A-FLAG (A. thaliana) (UniProt P43297). Put plainly: co-IP; RD21A-FLAG and PbE3-2-GFP co-expressed with OTU2-Myc or Ev-Myc in N. benthamiana leaves; IP with anti-GFP agarose beads, detection with anti-FLAG antibody.

With “PbE3-2 without a signal peptide, prey in pGADT7 (Plasmodiophora brassicae) (enzyme)”, the binding result in assay [1] is reported as “no binding”. In the case of “RD21A without signal peptide, prey in pGADT7 (from UniProt P43297) (enzyme)”, the binding entry in assay [2] is “binds”; in assay [3], “no binding”; in assay [1], “binds”.

B1: OTU2 in the second multiple cloning site of pBridge (enzyme, UniProt Q9LPT6 1-208)
chain: T1 sequence
For B1, the binding entry in assay [4] is listed as “binds”.

B2: OTU2-Myc (enzyme, UniProt Q9LPT6 1-208)
chain: T1 sequence
As to B2, in the assay with RD21A-FLAG (A. thaliana), the binding result was “binds”.
